The text below walks through data of patent US8198510.

The data set addresses AvrBs3 (Xanthomonas campestris pv. vesicatoria) (UniProt P14727). The data set is described as follows: binding assay. Conditions: ChIP, enriched with Xcv wild-type, not with hrcV mutant; protein in cells.

The exact form of at least one protein or probe is not confirmed. Where cells or extracts were used, other partners may take part.

Regarding “ATTTCTTCTATGTGCCTTGTGTCCAAAAGATGTTTCAGAAGTTCGCGTTGGGAAGTTGTCACCCTACGGAATAGCAGCATTAAGGCACATCAGAGATTTTTTGGGTGTTAAGTTTGTCATGAAACCTGATGCCTCCACAGGAACTGTCAATCTCATGTGTCTTGGCTCTGGTTTTCAGAATTTATCCAGAAAAGTATCATGATAAATTAATGGTGTCTGTGTTTGGTGGCTTAGAGTGACGGCTAGATCAACATCTTTGGGATGCCTTGTGGAGTGAAATCAAGCATACTTTATCATAGGCGAAATTTTTTGTTGTGGTTTGCTGCTTGTAATGAGAGAGTGATATAGGAAGCAAATGTGGAGATCACATTTGCTCATCTCCTTGTTGCGTTGAAACTTTTGGTGTCAAGAGTTCTAATTCACATGTATTTGAAGATTCCTCATATGCTGCTTTTGTTTCTAATTATTTTTTCTAGTAAGAAAACATTTGTTCCTGAGTTTCCAACTAGAAAAAAATATCAAGTAAAATAGAATTCAATCATTTCCCTTACCAACGCTTGGTACTGCCAACCGCAACAAAGAATTAATGCAAAACAACAGTCTATTAATATCAACCTAGACTAAACTCCTTAGTTTTACTTTGAAATGCGAATGATACATGACACATTAGATTGTACTTGCTTTTTACCACAGATACAACGATACATTTGTATATCTTTTCCCTTATAGCAAACTCTAATATATCATAGTCAAGCTAACGAAACTTATGCAAGGGAAATATGAAATTAGTATGCAAGTAAACTCAAAGAACTAATCATTGAACTGAAAGATCAATATATCAAAAAAAAAAAAAAAACAATAAAACCGTTTAACCGATAGATTAACCATTTCTGGTTCAGTTTATGGGTTAAACCACAATTTGCACACCCTGGTTAAACAATGAACACGTTTGCCTGACCAATTTTATTATATAAACCTAACCATCCTCACAACTTCAAGTTATCATCCCCTTTCTCTTTTCTCCTCTTGTTCTTGTCACCCGCTAAATCTATCAAAACACAAGTAGTCCTAGTTGCACATATATTTC (double strand) [Bs3 promoter]”, the binding result is on record as “binds”.
